Test results reported in the supplement of paper PMC10849652.
Some of the results follow.

Protein sequences, listed by entry. Tags and fused reporters are not part of them. Lines headed by an entry give the natural chain unless they say otherwise; changes in a name come on top.
UniProt O75494: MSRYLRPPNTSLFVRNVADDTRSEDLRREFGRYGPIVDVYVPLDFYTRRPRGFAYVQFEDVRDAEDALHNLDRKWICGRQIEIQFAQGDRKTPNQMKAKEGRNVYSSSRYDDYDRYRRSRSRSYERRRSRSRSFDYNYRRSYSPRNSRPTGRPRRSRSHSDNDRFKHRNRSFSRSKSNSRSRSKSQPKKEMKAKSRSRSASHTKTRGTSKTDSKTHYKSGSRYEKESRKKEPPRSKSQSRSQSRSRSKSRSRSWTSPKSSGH
UniProt Q8TCT8: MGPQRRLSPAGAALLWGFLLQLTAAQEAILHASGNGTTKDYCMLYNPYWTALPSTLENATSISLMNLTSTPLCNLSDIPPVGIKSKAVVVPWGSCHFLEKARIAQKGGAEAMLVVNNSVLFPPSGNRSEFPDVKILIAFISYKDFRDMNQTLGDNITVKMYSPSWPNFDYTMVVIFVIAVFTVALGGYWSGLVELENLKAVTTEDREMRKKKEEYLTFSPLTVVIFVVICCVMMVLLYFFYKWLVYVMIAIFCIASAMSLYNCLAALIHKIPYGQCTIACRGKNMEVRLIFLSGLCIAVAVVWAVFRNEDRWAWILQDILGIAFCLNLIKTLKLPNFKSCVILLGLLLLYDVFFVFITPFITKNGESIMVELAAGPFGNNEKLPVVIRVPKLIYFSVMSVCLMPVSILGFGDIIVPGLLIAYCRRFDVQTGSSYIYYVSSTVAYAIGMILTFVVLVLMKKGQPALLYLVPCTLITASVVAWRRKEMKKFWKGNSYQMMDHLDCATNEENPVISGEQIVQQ
UniProt Q8N9Q2: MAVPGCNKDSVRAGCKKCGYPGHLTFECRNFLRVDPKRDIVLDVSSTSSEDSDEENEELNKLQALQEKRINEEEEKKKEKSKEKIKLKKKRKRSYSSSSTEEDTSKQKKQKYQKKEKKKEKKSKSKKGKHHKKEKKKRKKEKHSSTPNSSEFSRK
UniProt P61011: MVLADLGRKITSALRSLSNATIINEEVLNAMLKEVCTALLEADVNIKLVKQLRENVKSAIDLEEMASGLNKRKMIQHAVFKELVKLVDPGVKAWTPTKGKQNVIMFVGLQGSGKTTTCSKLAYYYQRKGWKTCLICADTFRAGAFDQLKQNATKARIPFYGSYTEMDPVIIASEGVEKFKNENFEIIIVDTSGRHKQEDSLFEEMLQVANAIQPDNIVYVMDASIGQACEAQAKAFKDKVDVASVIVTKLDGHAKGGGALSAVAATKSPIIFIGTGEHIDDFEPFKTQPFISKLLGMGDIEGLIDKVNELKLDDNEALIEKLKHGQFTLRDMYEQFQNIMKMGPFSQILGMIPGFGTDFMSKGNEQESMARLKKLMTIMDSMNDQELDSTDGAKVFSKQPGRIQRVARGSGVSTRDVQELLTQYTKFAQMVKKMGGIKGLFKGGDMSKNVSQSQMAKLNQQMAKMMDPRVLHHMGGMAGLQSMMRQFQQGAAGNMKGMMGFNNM
UniProt Q9NY15: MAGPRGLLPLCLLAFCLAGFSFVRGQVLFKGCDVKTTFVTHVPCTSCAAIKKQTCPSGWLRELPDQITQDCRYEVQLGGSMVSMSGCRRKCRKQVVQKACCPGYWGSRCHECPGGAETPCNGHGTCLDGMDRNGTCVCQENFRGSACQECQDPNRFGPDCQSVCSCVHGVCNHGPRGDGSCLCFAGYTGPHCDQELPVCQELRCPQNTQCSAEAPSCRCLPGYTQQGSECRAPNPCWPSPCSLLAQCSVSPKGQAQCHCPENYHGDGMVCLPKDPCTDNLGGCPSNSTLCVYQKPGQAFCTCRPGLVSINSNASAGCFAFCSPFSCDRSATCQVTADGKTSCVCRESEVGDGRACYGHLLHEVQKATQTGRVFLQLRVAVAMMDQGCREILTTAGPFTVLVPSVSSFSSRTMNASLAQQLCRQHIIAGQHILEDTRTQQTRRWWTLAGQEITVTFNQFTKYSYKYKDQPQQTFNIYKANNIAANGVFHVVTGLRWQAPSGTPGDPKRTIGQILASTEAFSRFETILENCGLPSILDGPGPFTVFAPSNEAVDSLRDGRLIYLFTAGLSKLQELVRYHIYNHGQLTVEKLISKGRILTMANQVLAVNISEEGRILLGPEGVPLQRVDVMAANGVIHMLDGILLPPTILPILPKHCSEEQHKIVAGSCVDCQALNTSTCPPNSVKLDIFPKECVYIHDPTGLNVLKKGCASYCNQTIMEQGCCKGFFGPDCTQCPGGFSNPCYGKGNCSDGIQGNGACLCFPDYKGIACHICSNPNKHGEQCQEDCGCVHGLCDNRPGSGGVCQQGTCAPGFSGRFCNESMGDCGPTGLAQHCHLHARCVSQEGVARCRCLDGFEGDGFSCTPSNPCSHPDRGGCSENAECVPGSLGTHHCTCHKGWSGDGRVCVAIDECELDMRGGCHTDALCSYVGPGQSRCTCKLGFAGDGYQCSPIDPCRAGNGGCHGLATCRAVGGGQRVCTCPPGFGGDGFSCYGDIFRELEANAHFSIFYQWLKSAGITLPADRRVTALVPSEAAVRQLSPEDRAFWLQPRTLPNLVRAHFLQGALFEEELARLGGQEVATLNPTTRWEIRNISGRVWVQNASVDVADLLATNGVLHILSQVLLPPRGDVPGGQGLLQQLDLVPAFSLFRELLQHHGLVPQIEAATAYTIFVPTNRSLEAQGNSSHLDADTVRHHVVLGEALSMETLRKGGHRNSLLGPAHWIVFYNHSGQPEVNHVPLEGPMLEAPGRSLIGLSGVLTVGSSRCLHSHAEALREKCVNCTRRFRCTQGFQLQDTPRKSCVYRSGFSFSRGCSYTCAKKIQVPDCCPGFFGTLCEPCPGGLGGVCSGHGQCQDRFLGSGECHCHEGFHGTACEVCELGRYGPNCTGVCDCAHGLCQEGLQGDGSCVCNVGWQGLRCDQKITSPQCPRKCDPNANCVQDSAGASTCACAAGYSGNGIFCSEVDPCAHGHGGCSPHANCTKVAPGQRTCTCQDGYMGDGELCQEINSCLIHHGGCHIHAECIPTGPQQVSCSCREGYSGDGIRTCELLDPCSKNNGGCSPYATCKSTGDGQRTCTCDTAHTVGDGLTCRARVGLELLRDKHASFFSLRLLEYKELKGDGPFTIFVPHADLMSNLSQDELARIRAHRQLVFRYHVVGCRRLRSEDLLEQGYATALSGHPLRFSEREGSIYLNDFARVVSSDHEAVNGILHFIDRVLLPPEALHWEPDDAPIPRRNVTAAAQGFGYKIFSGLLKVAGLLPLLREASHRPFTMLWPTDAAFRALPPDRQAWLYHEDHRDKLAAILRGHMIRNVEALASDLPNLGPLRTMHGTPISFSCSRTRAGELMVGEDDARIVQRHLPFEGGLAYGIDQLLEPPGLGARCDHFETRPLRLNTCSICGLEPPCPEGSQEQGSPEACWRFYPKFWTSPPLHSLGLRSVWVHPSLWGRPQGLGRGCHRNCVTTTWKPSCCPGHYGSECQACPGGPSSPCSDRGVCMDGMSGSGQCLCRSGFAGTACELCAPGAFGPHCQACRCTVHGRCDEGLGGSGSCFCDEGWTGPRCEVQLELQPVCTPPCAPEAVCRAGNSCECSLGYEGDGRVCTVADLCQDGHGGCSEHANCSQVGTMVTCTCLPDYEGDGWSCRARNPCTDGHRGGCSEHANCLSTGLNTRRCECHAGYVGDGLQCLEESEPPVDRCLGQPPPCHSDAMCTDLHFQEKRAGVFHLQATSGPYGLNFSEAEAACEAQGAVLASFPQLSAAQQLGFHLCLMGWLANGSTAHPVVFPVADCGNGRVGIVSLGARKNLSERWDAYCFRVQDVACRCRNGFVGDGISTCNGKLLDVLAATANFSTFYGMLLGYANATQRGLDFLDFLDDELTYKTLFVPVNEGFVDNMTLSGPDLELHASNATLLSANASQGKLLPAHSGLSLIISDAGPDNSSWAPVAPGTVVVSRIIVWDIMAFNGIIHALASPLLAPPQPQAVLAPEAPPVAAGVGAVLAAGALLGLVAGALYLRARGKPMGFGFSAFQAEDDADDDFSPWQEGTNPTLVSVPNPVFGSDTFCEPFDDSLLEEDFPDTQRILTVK
UniProt Q11201: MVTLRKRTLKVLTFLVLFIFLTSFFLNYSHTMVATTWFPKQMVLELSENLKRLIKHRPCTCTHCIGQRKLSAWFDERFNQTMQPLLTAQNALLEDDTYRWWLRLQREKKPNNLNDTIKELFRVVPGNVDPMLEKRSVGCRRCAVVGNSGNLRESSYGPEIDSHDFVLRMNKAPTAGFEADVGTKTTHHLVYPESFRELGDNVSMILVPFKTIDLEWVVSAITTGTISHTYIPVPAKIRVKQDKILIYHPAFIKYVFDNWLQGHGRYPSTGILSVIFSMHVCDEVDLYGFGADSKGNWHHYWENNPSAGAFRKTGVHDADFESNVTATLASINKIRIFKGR
UniProt P35325: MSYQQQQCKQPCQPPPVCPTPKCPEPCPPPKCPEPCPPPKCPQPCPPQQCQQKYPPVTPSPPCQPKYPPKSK
UniProt Q96EA4: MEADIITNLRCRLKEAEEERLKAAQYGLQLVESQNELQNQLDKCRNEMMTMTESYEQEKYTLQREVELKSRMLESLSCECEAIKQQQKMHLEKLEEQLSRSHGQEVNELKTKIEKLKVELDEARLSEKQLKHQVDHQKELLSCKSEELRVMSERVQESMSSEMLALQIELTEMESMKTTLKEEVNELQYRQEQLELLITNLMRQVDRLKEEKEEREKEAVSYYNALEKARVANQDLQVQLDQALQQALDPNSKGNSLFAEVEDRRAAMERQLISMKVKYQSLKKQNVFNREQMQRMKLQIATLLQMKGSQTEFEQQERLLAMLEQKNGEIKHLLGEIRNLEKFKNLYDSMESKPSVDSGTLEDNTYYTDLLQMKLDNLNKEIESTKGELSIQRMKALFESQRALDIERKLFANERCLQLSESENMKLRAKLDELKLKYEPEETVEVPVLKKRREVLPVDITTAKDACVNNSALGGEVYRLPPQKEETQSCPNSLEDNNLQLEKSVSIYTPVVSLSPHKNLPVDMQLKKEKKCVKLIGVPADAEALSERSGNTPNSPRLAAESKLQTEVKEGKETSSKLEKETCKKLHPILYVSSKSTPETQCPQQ
UniProt Q9BWG4: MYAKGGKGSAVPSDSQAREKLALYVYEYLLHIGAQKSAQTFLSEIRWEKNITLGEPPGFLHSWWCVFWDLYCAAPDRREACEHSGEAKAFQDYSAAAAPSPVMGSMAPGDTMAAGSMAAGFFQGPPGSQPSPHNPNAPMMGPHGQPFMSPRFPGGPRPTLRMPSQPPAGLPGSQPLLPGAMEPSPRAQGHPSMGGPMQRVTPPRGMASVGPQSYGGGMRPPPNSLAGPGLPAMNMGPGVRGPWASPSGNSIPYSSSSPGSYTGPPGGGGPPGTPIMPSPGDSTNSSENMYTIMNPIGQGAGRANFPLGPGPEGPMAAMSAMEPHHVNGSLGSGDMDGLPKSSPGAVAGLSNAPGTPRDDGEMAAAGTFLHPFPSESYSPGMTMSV
UniProt Q16384, whole entry, looked up: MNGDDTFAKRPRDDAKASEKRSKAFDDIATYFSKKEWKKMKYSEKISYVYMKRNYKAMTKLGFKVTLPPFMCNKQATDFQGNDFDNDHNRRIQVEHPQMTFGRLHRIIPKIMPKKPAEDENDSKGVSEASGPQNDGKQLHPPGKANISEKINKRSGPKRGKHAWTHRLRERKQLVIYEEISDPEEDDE
UniProt Q7Z699: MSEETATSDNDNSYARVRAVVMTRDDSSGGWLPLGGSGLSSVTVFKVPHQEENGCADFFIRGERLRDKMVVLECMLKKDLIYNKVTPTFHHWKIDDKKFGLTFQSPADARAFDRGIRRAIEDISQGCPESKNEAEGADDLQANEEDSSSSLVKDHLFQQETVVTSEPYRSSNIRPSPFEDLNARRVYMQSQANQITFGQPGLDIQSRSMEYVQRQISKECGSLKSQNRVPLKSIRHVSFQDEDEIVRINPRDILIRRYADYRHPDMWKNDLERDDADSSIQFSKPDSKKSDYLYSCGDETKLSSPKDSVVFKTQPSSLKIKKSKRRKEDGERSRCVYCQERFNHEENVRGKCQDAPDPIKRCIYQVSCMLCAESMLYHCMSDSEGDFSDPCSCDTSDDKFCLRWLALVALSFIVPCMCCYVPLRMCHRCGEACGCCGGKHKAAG
UniProt O76061, whole entry, looked up: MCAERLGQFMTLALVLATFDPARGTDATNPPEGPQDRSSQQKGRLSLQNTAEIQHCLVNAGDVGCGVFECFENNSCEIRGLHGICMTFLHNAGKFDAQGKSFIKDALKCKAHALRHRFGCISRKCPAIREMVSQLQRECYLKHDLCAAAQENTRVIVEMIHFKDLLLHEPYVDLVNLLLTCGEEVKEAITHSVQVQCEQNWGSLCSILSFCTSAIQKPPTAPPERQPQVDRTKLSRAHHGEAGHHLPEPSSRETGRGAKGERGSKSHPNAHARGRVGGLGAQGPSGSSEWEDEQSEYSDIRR

Tests used:
Assay in all cases: log2 fold change, soluble protein after heating vs DMSO (PISA); higher = thermal stabilisation; K562 cells, 10 uM, 30 min; active = over 0.2 and 3.5 SD of the protein, either way, in both replicates (recomputed)
[1] = compound: C1=CC=C(C=C1)[C@H](COC2=CC3=C(C=C2)NC(=O)N3)NC(=O)C4=CC=CN(C4=O)CC5=CC(=C(C=C5)F)F
Method in brief: (§1)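 Aliquots of K562 cells (2×10^6 cells/mL) treated with 10 μM compound for 30 min were heated for 3 min over 48°C-58°C. After pooling and extraction in PBS with 0.5% NP-40 at 4°C, soluble protein from a 21,000xg, 90 min spin was quantified by TMTpro 16plex LC-MS/MS with channel sums equalised. Thermal stability is expressed against control samples, from duplicates, as a log2 fold change.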

[2] = compound: CC1=C(SC2=C1C(=N[C@H](C3=NN=C(N32)C)CC(=O)N)C4=CC=C(C=C4)Cl)C
Method in brief: as §1

[3] = compound: CC1=C2C(=CC=C1)N=C(N(C2=O)C3=CC=CC=C3C)CN4C=NC5=C(N=CN=C54)N
Method in brief: as §1

[4] = compound: Cc1sc2c(c1C)C(c1ccc(Cl)cc1)=N[C@@H](CC(=O)OC(C)(C)C)c1nnc(C)n1-2
Method in brief: as §1

[5] = compound: c1ccc([C@@H]2C[C@H]2NC2CCNCC2)cc1
Method in brief: as §1

Measured: log2 fold change

SRSF10 (UniProt O75494)
inactive: [1] 0.001 | [2] -0.475 | [3] -0.187 | [4] 0.249 | [5] 0.17

SPPL2A (UniProt Q8TCT8)
inactive: [1] 0.023 | [2] 0.005 | [3] -0.128 | [4] 0.035 | [5] 0.02

SREK1IP1 (UniProt Q8N9Q2)
inactive: [1] 0.031 | [2] -0.057 | [3] -0.039 | [4] -0.005 | [5] -0.018

SRP54 (UniProt P61011)
inactive: [1] -0.029 | [2] 0.02 | [3] 0.028 | [4] -0.005 | [5] -0.036

SRC isoform 2 (UniProt P12931)
inactive: [1] 0.016 | [2] 0.181 | [3] 0.125 | [4] 0.042 | [5] 0.003

STAB1 (UniProt Q9NY15)
inactive: [1] -0.17 | [2] 0 | [3] 0.308 | [5] 0.128

ST3GAL1 (UniProt Q11201)
inactive: [2] 0.294 | [5] -0.377

SPRR2B (UniProt P35325)
inactive: [1] 0.312 | [3] 0.385

Looked up one by one from the list above (2):
STAB1 (UniProt Q9NY15)
inactive: [1] -0.17 | [2] 0 | [3] 0.308 | [5] 0.128

SRP54 (UniProt P61011)
inactive: [1] -0.029 | [2] 0.02 | [3] 0.028 | [4] -0.005 | [5] -0.036

Remaining list, next part.

SPDL1 (UniProt Q96EA4)
inactive: [2] -0.034 | [4] 0.101 | [5] -0.028

SPIRE2 (UniProt Q8WWL2)
inactive: [1] -0.13 | [2] -0.04 | [4] 0.111 | [5] 0.397

SSBP4 (UniProt Q9BWG4)
inactive: [1] 0.086 | [4] 0.037

SSX1 (UniProt Q16384)
inactive: [1] -0.209 | [2] -0.095 | [5] 0.143

SSBP4 (UniProt U3KPY3)
inactive: [3] 0

SPRED1 (UniProt Q7Z699)
inactive: [2] 0.014 | [3] -0.221 | [5] 0.115

STC2 (UniProt O76061)
inactive: [1] -0.018 | [3] -0.826
